Measured values taken from paper PMC6570425, “Regulation of GLI1 by cis DNA elements and epigenetic marks”.
These are yes or no findings as the source states them, for the method shown. Binding seen in cells or lysates may run through a third protein. A yes stands for co-enrichment or nearness to the bait. Other partners may have been found. Tags and fused reporters may be left off the sequences shown.

Chains of the proteins cited; added tags and fusions are not shown.
UniProt P08151: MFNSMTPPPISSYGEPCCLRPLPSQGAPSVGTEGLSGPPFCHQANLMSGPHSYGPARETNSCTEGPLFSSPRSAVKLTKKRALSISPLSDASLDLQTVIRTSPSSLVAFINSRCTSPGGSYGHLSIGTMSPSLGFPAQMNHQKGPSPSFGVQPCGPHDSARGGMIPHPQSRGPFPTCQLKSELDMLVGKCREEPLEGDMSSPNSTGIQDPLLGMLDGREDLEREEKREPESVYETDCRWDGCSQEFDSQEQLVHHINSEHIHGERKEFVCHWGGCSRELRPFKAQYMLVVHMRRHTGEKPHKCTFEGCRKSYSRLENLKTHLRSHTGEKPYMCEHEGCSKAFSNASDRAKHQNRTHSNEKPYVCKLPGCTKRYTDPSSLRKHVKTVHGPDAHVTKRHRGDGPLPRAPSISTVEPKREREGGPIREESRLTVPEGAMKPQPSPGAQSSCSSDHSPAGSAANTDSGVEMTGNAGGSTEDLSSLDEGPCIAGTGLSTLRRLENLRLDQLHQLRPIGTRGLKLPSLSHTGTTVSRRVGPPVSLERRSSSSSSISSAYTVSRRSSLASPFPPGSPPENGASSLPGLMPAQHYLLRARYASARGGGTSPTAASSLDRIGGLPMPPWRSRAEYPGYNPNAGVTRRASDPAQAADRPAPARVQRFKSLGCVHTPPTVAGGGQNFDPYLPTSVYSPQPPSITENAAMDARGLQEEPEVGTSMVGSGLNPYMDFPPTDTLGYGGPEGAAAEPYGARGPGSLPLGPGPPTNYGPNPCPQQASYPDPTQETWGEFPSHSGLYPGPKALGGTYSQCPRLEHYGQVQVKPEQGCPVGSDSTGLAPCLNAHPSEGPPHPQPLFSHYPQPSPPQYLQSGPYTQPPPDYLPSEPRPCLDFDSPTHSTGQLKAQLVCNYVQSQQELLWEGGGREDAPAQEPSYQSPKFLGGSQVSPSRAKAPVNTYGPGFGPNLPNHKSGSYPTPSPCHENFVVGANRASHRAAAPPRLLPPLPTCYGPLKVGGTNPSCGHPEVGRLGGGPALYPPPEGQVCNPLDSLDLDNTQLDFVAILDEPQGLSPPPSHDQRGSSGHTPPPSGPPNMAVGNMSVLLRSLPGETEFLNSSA

Biological target: GLI1-GFP fusion protein (UniProt P08151)
Assay: affinity purification with mass spectrometry; HeLa cells transfected with GFP-GLI1 or GFP alone; lysis in modified RIPA (400 mM NaCl, 1% NP-40); GFP-Trap beads overnight at 4 °C; washes with 150 mM NaCl, 0.1% NP-40; SDS-PAGE, LC-MS/MS with LFQ; two independent isolations

B1: SUV39H1, a histone methyltransferase (enzyme, UniProt O43463 1-412)
chain: MAENLKGCSVCCKSSWNQLQDLCRLAKLSCPALGISKRNLYDFEVEYLCDYKKIREQEYYLVKWRGYPDSESTWEPRQNLKCVRILKQFHKDLERELLRRHHRSKTPRHLDPSLANYLVQKAKQRRALRRWEQELNAKRSHLGRITVENEVDLDGPPRAFVYINEYRVGEGITLNQVAVGCECQDCLWAPTGGCCPGASLHKFAYNDQGQVRLRAGLPIYECNSRCRCGYDCPNRVVQKGIRYDLCIFRTDDGRGWGVRTLEKIRKNSFVMEYVGEIITSEEAERRGQIYDRQGATYLFDLDYVEDVYTVDAAYYGNISHFVNHSCDPNLQVYNVFIDNLDERLPRIAFFATRTIRAGEELTFDYNMQVDPVDMESTRMDSNFGLAGLPGSPKKRVRIECKCGTESCRKYLF
Question: Which binding does the source give for B1 here?
Answer: Its binding is “binds”.
